This assay has as its target ICAM-1 (human (endogenous in HUVEC)) (UniProt P05362). Briefly: co-IP; pull-out: beads coated with anti-ICAM-1 or anti-PECAM-1 antibody cluster the receptor on TNF-α treated HUVEC (for ICAM-1: ionomycin 1 μM 10 min, clustering 10-30 min), lysis in RIPA buffer pH 7.4, beads with lysate 1-2 h at 4 °C, washes, western blot.

Chains of the proteins cited; added tags and fusions are not shown. Residues count along the entry.
UniProt P05362, residues 28-532: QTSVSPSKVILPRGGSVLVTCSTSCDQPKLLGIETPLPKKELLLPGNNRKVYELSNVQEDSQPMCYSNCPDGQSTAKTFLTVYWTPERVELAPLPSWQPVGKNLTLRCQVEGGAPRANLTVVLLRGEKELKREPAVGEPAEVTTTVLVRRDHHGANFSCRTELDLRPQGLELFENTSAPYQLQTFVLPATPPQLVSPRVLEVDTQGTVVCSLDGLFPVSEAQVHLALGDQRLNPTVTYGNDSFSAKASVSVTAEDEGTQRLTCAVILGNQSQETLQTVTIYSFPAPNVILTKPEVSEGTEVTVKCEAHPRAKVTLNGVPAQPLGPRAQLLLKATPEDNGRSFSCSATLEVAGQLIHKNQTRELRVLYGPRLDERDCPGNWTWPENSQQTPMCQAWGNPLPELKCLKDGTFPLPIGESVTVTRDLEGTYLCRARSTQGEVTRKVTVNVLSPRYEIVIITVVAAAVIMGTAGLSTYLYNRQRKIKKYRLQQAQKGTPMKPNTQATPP
UniProt Q9NZN5: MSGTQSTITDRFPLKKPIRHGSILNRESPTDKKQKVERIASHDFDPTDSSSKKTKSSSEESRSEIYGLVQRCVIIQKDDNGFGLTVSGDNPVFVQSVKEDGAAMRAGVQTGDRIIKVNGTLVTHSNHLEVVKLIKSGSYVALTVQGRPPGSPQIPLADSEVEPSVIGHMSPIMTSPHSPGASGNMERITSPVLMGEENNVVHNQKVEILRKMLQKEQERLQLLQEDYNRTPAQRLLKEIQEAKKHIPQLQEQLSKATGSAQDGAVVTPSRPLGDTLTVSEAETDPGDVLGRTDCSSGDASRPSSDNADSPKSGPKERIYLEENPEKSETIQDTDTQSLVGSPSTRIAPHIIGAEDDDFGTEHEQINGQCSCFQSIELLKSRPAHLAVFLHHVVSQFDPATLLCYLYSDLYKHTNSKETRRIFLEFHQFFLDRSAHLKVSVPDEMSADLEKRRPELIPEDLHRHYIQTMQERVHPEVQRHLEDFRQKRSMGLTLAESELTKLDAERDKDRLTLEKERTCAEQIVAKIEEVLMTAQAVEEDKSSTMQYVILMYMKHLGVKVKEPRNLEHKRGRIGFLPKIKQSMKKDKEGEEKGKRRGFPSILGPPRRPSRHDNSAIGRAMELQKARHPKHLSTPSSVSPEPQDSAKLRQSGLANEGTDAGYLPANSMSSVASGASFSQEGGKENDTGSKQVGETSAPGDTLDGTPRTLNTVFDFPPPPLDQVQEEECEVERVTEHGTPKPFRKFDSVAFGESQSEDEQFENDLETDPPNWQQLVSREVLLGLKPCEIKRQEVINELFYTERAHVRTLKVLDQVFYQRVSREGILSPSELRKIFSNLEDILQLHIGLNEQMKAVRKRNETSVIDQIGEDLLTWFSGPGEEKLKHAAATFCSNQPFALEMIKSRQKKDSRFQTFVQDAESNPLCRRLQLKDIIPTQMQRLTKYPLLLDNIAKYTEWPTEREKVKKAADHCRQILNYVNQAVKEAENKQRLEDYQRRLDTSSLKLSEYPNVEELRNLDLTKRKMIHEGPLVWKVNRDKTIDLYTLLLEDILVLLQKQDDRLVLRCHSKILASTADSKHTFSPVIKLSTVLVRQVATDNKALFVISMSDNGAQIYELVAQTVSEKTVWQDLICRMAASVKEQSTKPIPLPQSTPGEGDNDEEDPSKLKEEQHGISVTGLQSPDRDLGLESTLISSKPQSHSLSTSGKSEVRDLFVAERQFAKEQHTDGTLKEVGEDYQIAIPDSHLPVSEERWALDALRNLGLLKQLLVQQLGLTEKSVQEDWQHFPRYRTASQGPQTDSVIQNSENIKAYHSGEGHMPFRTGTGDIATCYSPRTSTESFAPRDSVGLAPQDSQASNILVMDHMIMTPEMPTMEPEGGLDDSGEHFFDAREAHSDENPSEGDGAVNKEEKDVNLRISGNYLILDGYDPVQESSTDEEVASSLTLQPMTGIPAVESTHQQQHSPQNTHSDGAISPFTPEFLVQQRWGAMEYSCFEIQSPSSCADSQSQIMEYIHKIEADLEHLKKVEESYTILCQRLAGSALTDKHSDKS

Results are given in words; binding and its absence hold for the method and conditions named. Binding seen in cells or lysates may run through a third protein. Some results given as binding are weak or reduced against the parent protein; the word gives no strength.

For the substance LARG (from UniProt Q9NZN5 1-1544), the binding result was “binds”.

These data come from PMC4737874.
